Source: PubChem BioAssay AID1259308 (NCATS, 2017)

Assay: 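Candidate targets for better recombinant protein yield in mammalian cells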 (primary screen)
System: human HEK293 embryonic kidney cells stably expressing firefly luciferase (HEK-CMV-Luc2-Hygro)
Reagent: single siRNA against human genes, 0.8 pmol siRNA per well
Duration: 72 h
Measurement: 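Reporter luminescence and viable-cell signal on separate replicate plates, given as percent of non-targeting control and median/MAD z-scores, plus per-cell luciferase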
Scale: total luciferase, z-score and total luciferase, % of control: higher = more reporter protein produced; luciferase per cell, z-score: higher = more reporter output per viable cell; viable cells, % of control: higher = more viable cells
Call rule: 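Active when the median/MAD z-score for overall luciferase is greater than 3; a gene was taken forward for validation with new siRNAs if at least two of its three siRNAs passed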
Calls: active = raised luciferase; inactive = no rise
The whole screen tested about 59,000 reagents; shown is a random part of them. Over the whole deposit, about 1,510 (2.6%) were called active. 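Calls use total luciferase alone and ignore viability, so some active siRNAs may act by altering cell number.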 The numbers tell different reagents against one gene apart.

gene knocked down	siRNA no.	total luciferase, z-score	total luciferase, % of control	luciferase per cell, z-score	viable cells, % of control	activity call
ADGRF2P	1	-0.0828	80.2	-0.432	100	inactive
ADGRF2P	2	-0.213	77.6	-0.576	101	inactive
ADGRF2P	3	-0.535	71.2	-0.399	88.4	inactive
PTPRZ1	1	0.123	84.3	-0.21	99.6	inactive
PTPRZ1	2	2.17	125	1.33	98.5	inactive
PTPRZ1	3	-0.274	76.4	-0.644	101	inactive
OCLN	1	-0.344	75	-0.0704	85.4	inactive
OCLN	2	-0.017	81.5	-0.112	93.9	inactive
OCLN	3	0.531	92.5	1.2	75.4	inactive
CLRN2	1	0.544	92.7	0.577	89	inactive
CLRN2	2	0.176	85.4	0.209	90.3	inactive
CLRN2	3	1.6	114	1.38	88.4	inactive
EN1	1	-1.36	54.9	-1.41	88.9	inactive
EN1	2	1.79	117	0.781	107	inactive
EN1	3	2.67	135	0.682	126	inactive
GNAI3	1	-0.769	66.6	-1.02	97.3	inactive
GNAI3	2	1.46	111	0.726	102	inactive
GNAI3	3	-0.435	73.2	-0.629	96.6	inactive
TPPP3	1	0.235	86.6	-0.111	99.6	inactive
TPPP3	2	-0.0778	80.3	-0.373	99	inactive
TPPP3	3	-1.26	56.8	-0.187	66.6	inactive
CXCL3	1	-0.0884	80.1	-0.446	101	inactive
CXCL3	2	0.26	87.1	-0.209	103	inactive
CXCL3	3	0.0113	82.1	-0.193	96.5	inactive

A run of entries from the list above:
gene knocked down	siRNA no.	total luciferase, z-score	total luciferase, % of control	luciferase per cell, z-score	viable cells, % of control	activity call
EN1	2	1.79	117	0.781	107	inactive
EN1	3	2.67	135	0.682	126	inactive
GNAI3	1	-0.769	66.6	-1.02	97.3	inactive
GNAI3	2	1.46	111	0.726	102	inactive

Next results:
gene knocked down	siRNA no.	total luciferase, z-score	total luciferase, % of control	luciferase per cell, z-score	viable cells, % of control	activity call
ZNF883	1	0.523	92.3	0.709	85.6	inactive
ZNF883	2	-1.36	54.9	-1.91	102	inactive
ZNF883	3	1.22	106	0.157	114	inactive
MINDY3	1	0.38	89.4	0.486	87.9	inactive
MINDY3	2	-0.167	78.6	-0.293	94.8	inactive
MINDY3	3	-1.24	57.3	-0.428	71.7	inactive
UBE2HP1	1	1.94	120	1.34	94.5	inactive
UBE2HP1	2	1.36	109	1.84	74.9	inactive
UBE2HP1	3	1.64	115	0.916	101	inactive
COL18A1-AS1	1	0.79	97.6	0.363	99.1	inactive
COL18A1-AS1	2	-0.675	68.5	-0.29	82.6	inactive
COL18A1-AS1	3	0.657	94.9	0.581	91.1	inactive
MSS51	1	0.305	88	0.667	82.5	inactive
MSS51	2	-0.603	69.9	-0.481	88.6	inactive
MSS51	3	1.27	107	0.214	113	inactive
